# This is one part of the list.
# Assays:
# Assay in all cases: glycan array binding signal (z-score within array); higher = stronger binding
# Conditions in all cases: glycan notation: IUPAC condensed, linker removed
# [1] = molecular target: Fuc(a1-2)Gal6S(b1-3)GlcNAc
# How it was run: (§1)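 The binding signal is a Z-score computed within each array and averaged over linkers. Arrays of the same protein sequence at different concentrations or buffers were also averaged together. Data originate from 3228 arrays in the Consortium for Functional Glycomics database, kept only where the protein sequence was available.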
# [2] = molecular target: Fuc(a1-2)Gal6S(b1-3)GlcNAc6S
# How it was run: as §1
# [3] = molecular target: Fuc(a1-2)Gal6S(b1-4)Glc
# How it was run: as §1
# [4] = molecular target: Fuc(a1-2)Gal6S(b1-4)Glc6S
# How it was run: as §1
# [5] = molecular target: Fuc(a1-2)[Gal(a1-3)]Gal
# How it was run: as §1
# [6] = molecular target: Fuc(a1-2)[Gal(a1-3)]Gal(b1-3)GalNAc
# How it was run: as §1
# [7] = molecular target: Fuc(a1-2)[Gal(a1-3)]Gal(b1-3)GalNAc(b1-3)Gal(a1-4)Gal(b1-4)Glc
# How it was run: as §1
# [8] = molecular target: Fuc(a1-2)[Gal(a1-3)]Gal(b1-3)GlcNAc
# How it was run: as §1
# [9] = molecular target: Fuc(a1-2)[Gal(a1-3)]Gal(b1-3)GlcNAc(b1-2)Man(a1-3)[Fuc(a1-2)[Gal(a1-3)]Gal(b1-3)GlcNAc(b1-2)Man(a1-6)]Man(b1-4)GlcNAc(b1-4)GlcNAc
# How it was run: as §1
# [10] = molecular target: Fuc(a1-2)[Gal(a1-3)]Gal(b1-3)GlcNAc(b1-2)Man(a1-3)[Fuc(a1-2)[Gal(a1-3)]Gal(b1-3)GlcNAc(b1-2)Man(a1-6)]Man(b1-4)GlcNAc(b1-4)[Fuc(a1-6)]GlcNAc
# How it was run: as §1
# [11] = molecular target: Fuc(a1-2)[Gal(a1-3)]Gal(b1-3)GlcNAc(b1-3)GalNAc
# How it was run: as §1
# [12] = molecular target: Fuc(a1-2)[Gal(a1-3)]Gal(b1-3)GlcNAc(b1-6)GalNAc
# How it was run: as §1
# [13] = molecular target: Fuc(a1-2)[Gal(a1-3)]Gal(b1-4)Glc
# How it was run: as §1
# [14] = molecular target: Fuc(a1-2)[Gal(a1-3)]Gal(b1-4)GlcNAc
# How it was run: as §1
# [15] = molecular target: Fuc(a1-2)[Gal(a1-3)]Gal(b1-4)GlcNAc(b1-2)Man
# How it was run: as §1
# [16] = molecular target: Fuc(a1-2)[Gal(a1-3)]Gal(b1-4)GlcNAc(b1-2)Man(a1-3)[Fuc(a1-2)[Gal(a1-3)]Gal(b1-4)GlcNAc(b1-2)Man(a1-6)]Man(b1-4)GlcNAc(b1-4)GlcNAc
# How it was run: as §1
# [17] = molecular target: Fuc(a1-2)[Gal(a1-3)]Gal(b1-4)GlcNAc(b1-2)Man(a1-3)[Fuc(a1-2)[Gal(a1-3)]Gal(b1-4)GlcNAc(b1-2)Man(a1-6)]Man(b1-4)GlcNAc(b1-4)[Fuc(a1-6)]GlcNAc
# How it was run: as §1
# [18] = molecular target: Fuc(a1-2)[Gal(a1-3)]Gal(b1-4)GlcNAc(b1-3)GalNAc
# How it was run: as §1
# [19] = molecular target: Fuc(a1-2)[Gal(a1-3)]Gal(b1-4)GlcNAc(b1-3)[Fuc(a1-2)[Gal(a1-3)]Gal(b1-4)GlcNAc(b1-6)]GalNAc
# How it was run: as §1
# [20] = molecular target: Fuc(a1-2)[Gal(a1-3)]Gal(b1-4)GlcNAc(b1-6)GalNAc
# How it was run: as §1
# [21] = molecular target: Fuc(a1-2)[Gal(a1-3)]Gal(b1-4)[Fuc(a1-3)]Glc
# How it was run: as §1
# [22] = molecular target: Fuc(a1-2)[Gal(a1-3)]Gal(b1-4)[Fuc(a1-3)]GlcNAc
# How it was run: as §1
# [23] = molecular target: Fuc(a1-2)[Gal(a1-3)]Gal(b1-4)[Fuc(a1-3)]GlcNAc(b1-3)GalNAc
# How it was run: as §1
# [24] = molecular target: Fuc(a1-2)[Gal(a1-4)]Gal(b1-4)GlcNAc
# How it was run: as §1
# [25] = molecular target: Fuc(a1-2)[GalNAc(a1-3)]Gal
# How it was run: as §1
# [26] = molecular target: Fuc(a1-2)[GalNAc(a1-3)]Gal(b1-3)GalNAc(a1-3)[Fuc(a1-2)]Gal(b1-4)GlcNAc
# How it was run: as §1
# [27] = molecular target: Fuc(a1-2)[GalNAc(a1-3)]Gal(b1-3)GalNAc(b1-3)Gal(a1-4)Gal(b1-4)Glc
# How it was run: as §1
# [28] = molecular target: Fuc(a1-2)[GalNAc(a1-3)]Gal(b1-3)GlcNAc
# How it was run: as §1
# [29] = molecular target: Fuc(a1-2)[GalNAc(a1-3)]Gal(b1-3)GlcNAc(b1-2)Man(a1-3)[Fuc(a1-2)[GalNAc(a1-3)]Gal(b1-3)GlcNAc(b1-2)Man(a1-6)]Man(b1-4)GlcNAc(b1-4)GlcNAc
# How it was run: as §1
# [30] = molecular target: Fuc(a1-2)[GalNAc(a1-3)]Gal(b1-3)GlcNAc(b1-2)Man(a1-3)[Fuc(a1-2)[GalNAc(a1-3)]Gal(b1-3)GlcNAc(b1-2)Man(a1-6)]Man(b1-4)GlcNAc(b1-4)[Fuc(a1-6)]GlcNAc
# How it was run: as §1
# [31] = molecular target: Fuc(a1-2)[GalNAc(a1-3)]Gal(b1-3)GlcNAc(b1-3)GalNAc
# How it was run: as §1
# [32] = molecular target: Fuc(a1-2)[GalNAc(a1-3)]Gal(b1-3)GlcNAc(b1-6)GalNAc
# How it was run: as §1
# [33] = molecular target: Fuc(a1-2)[GalNAc(a1-3)]Gal(b1-4)Glc
# How it was run: as §1
# [34] = molecular target: Fuc(a1-2)[GalNAc(a1-3)]Gal(b1-4)GlcNAc
# How it was run: as §1
# [35] = molecular target: Fuc(a1-2)[GalNAc(a1-3)]Gal(b1-4)GlcNAc(b1-2)Man
# How it was run: as §1
# [36] = molecular target: Fuc(a1-2)[GalNAc(a1-3)]Gal(b1-4)GlcNAc(b1-2)Man(a1-3)[Fuc(a1-2)[GalNAc(a1-3)]Gal(b1-4)GlcNAc(b1-2)Man(a1-6)]Man(b1-4)GlcNAc(b1-4)GlcNAc
# How it was run: as §1
# [37] = molecular target: Fuc(a1-2)[GalNAc(a1-3)]Gal(b1-4)GlcNAc(b1-2)Man(a1-3)[Fuc(a1-2)[GalNAc(a1-3)]Gal(b1-4)GlcNAc(b1-2)Man(a1-6)]Man(b1-4)GlcNAc(b1-4)[Fuc(a1-6)]GlcNAc
# How it was run: as §1
# [38] = molecular target: Fuc(a1-2)[GalNAc(a1-3)]Gal(b1-4)GlcNAc(b1-3)Gal(b1-4)GlcNAc
# How it was run: as §1
# [39] = molecular target: Fuc(a1-2)[GalNAc(a1-3)]Gal(b1-4)GlcNAc(b1-3)Gal(b1-4)GlcNAc(b1-3)Gal(b1-4)GlcNAc
# How it was run: as §1
# [40] = molecular target: Fuc(a1-2)[GalNAc(a1-3)]Gal(b1-4)GlcNAc(b1-3)GalNAc
# How it was run: as §1
# [41] = molecular target: Fuc(a1-2)[GalNAc(a1-3)]Gal(b1-4)GlcNAc(b1-3)[Fuc(a1-2)[GalNAc(a1-3)]Gal(b1-4)GlcNAc(b1-6)]GalNAc
# How it was run: as §1
# [42] = molecular target: Fuc(a1-2)[GalNAc(a1-3)]Gal(b1-4)GlcNAc(b1-6)GalNAc
# How it was run: as §1
# [43] = molecular target: Fuc(a1-2)[GalNAc(a1-3)]Gal(b1-4)[Fuc(a1-3)]GlcNAc
# How it was run: as §1
# [44] = molecular target: Fuc(a1-2)[GalNAc(a1-3)]Gal(b1-4)[Fuc(a1-3)]GlcNAc(b1-3)GalNAc
# How it was run: as §1
# [45] = molecular target: Fuc(a1-2)[GalNAc(a1-4)]Gal(b1-4)GlcNAc
# How it was run: as §1
binder,measurement,setting,value
Epa20 (Candida glabrata) (protein) MGSSHHHHHHSSGLVPRGSHMASSNIPNNYPLGCSNKYSGHLPGLKMELYSYNYVNPRHPDPQNPGKLDQLYDPNLLGTYECFDSSYKDINYPRVGYKSKTLIGRSDGVSGILNFNFVPPWGCMPQKGQLPPAYNFKSNITLSNFTMILFGYFKPKISGNHIFSLHGDDLIYLNFGAGNAFDCCRQESSADNFGNYQAFSLWGINWEKKTLTVYLDMNTYYPIRIFYNNRDYQAIFNFSFKTEFDSSPVIDFQDYFFFLRDIDGGCPGEV,glycan array binding signal (z-score),[1],-0.604
same,glycan array binding signal (z-score),[2],0.538
same,glycan array binding signal (z-score),[3],-0.005
same,glycan array binding signal (z-score),[4],-0.642
same,glycan array binding signal (z-score),[5],-0.6
same,glycan array binding signal (z-score),[6],-0.104
same,glycan array binding signal (z-score),[7],-0.067
same,glycan array binding signal (z-score),[8],-0.248
same,glycan array binding signal (z-score),[9],-0.338
same,glycan array binding signal (z-score),[10],0.072
same,glycan array binding signal (z-score),[11],-0.37
same,glycan array binding signal (z-score),[12],-0.365
same,glycan array binding signal (z-score),[13],-0.254
same,glycan array binding signal (z-score),[14],-0.542
same,glycan array binding signal (z-score),[15],-0.574
same,glycan array binding signal (z-score),[16],-0.252
same,glycan array binding signal (z-score),[17],-0.44
same,glycan array binding signal (z-score),[18],-0.358
same,glycan array binding signal (z-score),[19],0.437
same,glycan array binding signal (z-score),[20],-0.478
same,glycan array binding signal (z-score),[21],-0.597
same,glycan array binding signal (z-score),[22],-0.119
same,glycan array binding signal (z-score),[23],0.657
same,glycan array binding signal (z-score),[24],0.161
same,glycan array binding signal (z-score),[25],-0.452
same,glycan array binding signal (z-score),[26],-0.262
same,glycan array binding signal (z-score),[27],-0.021
same,glycan array binding signal (z-score),[28],0.546
same,glycan array binding signal (z-score),[29],-0.559
same,glycan array binding signal (z-score),[30],-0.462
same,glycan array binding signal (z-score),[31],0.427
same,glycan array binding signal (z-score),[32],-0.607
same,glycan array binding signal (z-score),[33],-0.567
same,glycan array binding signal (z-score),[34],-0.674
same,glycan array binding signal (z-score),[35],-0.81
same,glycan array binding signal (z-score),[36],-0.219
same,glycan array binding signal (z-score),[37],0.021
same,glycan array binding signal (z-score),[38],-0.385
same,glycan array binding signal (z-score),[39],0.348
same,glycan array binding signal (z-score),[40],-0.351
same,glycan array binding signal (z-score),[41],0.032
same,glycan array binding signal (z-score),[42],-0.648
same,glycan array binding signal (z-score),[43],0.484
same,glycan array binding signal (z-score),[44],3.14
same,glycan array binding signal (z-score),[45],-0.503

# As a short view, part of the list above:
binder,measurement,setting,value
Epa20 (Candida glabrata) (protein) MGSSHHHHHHSSGLVPRGSHMASSNIPNNYPLGCSNKYSGHLPGLKMELYSYNYVNPRHPDPQNPGKLDQLYDPNLLGTYECFDSSYKDINYPRVGYKSKTLIGRSDGVSGILNFNFVPPWGCMPQKGQLPPAYNFKSNITLSNFTMILFGYFKPKISGNHIFSLHGDDLIYLNFGAGNAFDCCRQESSADNFGNYQAFSLWGINWEKKTLTVYLDMNTYYPIRIFYNNRDYQAIFNFSFKTEFDSSPVIDFQDYFFFLRDIDGGCPGEV,glycan array binding signal (z-score),[42],-0.648
same,glycan array binding signal (z-score),[43],0.484

# Source: the supplement of paper PMC8728848
